Measurements taken from PMC3364985, “Staphylococcus aureus Surface Protein SdrE Binds Complement Regulator Factor H as an Immune Evasion Tactic” (PLoS ONE, 2012).
No constants are given. Whether binding was seen depends on the method and setting. For part of these data: In cells and extracts the contact can be indirect. Some binding calls cover weakened binding; strength is not graded here.

Amino acid sequences for entries named in this document (tags omitted). Residues count along the entry.
UniProt O86489, residues 53-1132: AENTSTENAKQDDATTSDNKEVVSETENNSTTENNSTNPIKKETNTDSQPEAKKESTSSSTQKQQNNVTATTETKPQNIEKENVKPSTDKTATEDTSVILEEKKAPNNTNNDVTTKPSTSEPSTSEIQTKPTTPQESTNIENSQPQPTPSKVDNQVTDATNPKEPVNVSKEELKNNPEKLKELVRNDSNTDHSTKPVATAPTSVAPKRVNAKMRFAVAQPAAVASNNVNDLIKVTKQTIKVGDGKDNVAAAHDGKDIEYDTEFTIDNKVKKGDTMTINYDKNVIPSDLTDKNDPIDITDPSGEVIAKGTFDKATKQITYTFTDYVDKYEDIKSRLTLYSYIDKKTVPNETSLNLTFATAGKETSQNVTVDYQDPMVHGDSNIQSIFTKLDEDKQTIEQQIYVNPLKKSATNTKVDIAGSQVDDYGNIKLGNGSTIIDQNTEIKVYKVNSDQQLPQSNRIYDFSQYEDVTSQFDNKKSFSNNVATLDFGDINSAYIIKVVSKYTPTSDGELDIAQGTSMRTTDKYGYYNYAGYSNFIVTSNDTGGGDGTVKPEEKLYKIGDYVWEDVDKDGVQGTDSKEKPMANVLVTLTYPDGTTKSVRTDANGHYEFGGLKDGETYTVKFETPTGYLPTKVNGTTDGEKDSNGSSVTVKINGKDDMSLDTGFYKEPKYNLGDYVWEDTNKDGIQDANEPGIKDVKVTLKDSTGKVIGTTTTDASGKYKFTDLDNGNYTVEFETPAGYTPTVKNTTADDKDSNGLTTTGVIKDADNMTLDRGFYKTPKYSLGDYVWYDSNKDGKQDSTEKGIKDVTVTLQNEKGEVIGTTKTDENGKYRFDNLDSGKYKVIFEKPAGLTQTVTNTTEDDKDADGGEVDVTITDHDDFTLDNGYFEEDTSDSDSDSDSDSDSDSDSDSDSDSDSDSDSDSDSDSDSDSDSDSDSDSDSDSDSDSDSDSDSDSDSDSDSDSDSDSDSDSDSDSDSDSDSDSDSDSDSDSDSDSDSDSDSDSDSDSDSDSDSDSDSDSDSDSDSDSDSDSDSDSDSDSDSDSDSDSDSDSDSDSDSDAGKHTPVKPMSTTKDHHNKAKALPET
UniProt P08603, residues 19-1231: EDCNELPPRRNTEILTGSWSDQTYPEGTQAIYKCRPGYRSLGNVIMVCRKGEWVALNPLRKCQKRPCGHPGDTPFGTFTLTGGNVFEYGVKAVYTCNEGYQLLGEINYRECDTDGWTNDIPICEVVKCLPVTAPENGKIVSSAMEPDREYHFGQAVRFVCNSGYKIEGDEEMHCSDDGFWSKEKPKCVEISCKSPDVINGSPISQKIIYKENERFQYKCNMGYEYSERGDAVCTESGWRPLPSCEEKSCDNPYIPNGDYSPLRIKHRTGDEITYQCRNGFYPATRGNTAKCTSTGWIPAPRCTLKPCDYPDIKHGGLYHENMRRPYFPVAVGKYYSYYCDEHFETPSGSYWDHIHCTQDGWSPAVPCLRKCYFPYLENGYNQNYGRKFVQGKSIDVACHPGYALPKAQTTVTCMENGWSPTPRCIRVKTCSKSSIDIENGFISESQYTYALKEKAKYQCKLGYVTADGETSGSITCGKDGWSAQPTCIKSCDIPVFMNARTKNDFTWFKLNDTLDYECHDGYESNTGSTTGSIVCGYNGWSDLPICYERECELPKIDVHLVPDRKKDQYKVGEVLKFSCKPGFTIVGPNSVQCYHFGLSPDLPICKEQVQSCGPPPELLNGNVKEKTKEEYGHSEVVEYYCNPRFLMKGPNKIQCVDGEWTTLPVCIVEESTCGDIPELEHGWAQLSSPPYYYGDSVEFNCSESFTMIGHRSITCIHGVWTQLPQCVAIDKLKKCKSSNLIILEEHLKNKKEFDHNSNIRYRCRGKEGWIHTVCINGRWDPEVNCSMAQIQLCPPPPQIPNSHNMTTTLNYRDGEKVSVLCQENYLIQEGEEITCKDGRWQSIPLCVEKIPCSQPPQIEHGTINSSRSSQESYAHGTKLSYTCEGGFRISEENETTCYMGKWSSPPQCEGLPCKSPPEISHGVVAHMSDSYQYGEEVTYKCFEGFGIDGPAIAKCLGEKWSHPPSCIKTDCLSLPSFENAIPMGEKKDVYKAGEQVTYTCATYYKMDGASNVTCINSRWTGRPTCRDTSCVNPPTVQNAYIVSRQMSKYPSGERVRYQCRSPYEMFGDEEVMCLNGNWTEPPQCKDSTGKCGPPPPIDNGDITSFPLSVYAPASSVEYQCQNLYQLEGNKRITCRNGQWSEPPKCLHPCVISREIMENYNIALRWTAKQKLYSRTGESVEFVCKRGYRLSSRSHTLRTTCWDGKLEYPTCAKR

Legend:
[1] = molecular target: Serine-aspartate repeat-containing protein E (SdrE) of S. aureus strain Reynolds, native cell wall protein (S. aureus strain Reynolds (endogenous)) (UniProt O86489); assay: cross-linking; 1×10^9 S. aureus Reynolds cells with 10 µg purified fH, 1 hr, PBS, 37°C; 50 µM BS^3 for 30 mins; cell wall extract, SDS-PAGE, anti-fH Western blot; fH-containing band identified by LC-ESI-MS/MS; only the binder purified
[2] = molecular target: SdrE expressed on the surface of Lactococcus lactis (pKS80-SdrE) (S. aureus) (UniProt O86489); assay: binding to whole bacteria in solution, SDS extraction, Western blot; L. lactis in GVBS^++ with 20% HI-serum, 1 hr, 37°C; bound proteins extracted with 2% SDS; anti-fH Western blot
[3] = molecular target: Serine-aspartate repeat-containing protein E (SdrE) of S. aureus strain Reynolds, native cell wall protein (S. aureus strain Reynolds (endogenous)) (UniProt O86489); assay: far-Western, overlay or dot blot; S. aureus cell wall protein fractions (size-exclusion and ionic exchange chromatography) resolved by SDS-PAGE, blotted, overlaid with purified fH (20 µg fH/10 ml 3% BSA/TBST) overnight at 4°C, anti-fH detection; bands that bound fH excised and identified by LC-ESI-MS/MS; only the binder purified

Measured: binding

complement regulatory protein factor H (from UniProt P08603 19-1231)
binds: all assays above
